# Laboratory results published in the supplement of paper PMC12819154, “High-throughput peptide-centric local stability assay extends protein–ligand identification to membrane proteins, tissues and bacteria” (Nature Structural & Molecular Biology, 2025).
# By UniProt entry, the sequences of proteins in these tests, tags left out. Where a name states a change or a piece, a line headed by the entry shows the natural chain unless it says otherwise.
# UniProt Q9NQB0, whole entry: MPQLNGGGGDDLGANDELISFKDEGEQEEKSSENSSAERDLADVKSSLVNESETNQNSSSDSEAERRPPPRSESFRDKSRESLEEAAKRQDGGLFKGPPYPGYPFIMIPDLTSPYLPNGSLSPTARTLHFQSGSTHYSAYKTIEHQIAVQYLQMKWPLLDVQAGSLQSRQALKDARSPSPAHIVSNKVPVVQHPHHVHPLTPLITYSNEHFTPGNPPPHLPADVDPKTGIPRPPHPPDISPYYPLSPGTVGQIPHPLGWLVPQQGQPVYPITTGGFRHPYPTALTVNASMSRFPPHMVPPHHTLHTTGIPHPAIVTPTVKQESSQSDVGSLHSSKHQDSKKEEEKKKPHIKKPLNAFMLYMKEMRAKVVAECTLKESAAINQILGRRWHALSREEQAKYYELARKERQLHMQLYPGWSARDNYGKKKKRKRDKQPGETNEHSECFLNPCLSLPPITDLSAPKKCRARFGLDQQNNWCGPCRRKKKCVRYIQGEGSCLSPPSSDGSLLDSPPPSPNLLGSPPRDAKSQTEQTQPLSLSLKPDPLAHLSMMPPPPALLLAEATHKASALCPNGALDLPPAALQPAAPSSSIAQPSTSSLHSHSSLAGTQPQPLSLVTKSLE
# UniProt Q9HD64: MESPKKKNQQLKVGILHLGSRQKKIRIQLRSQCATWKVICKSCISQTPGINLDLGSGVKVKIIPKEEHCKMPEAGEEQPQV
# UniProt Q9NPJ3: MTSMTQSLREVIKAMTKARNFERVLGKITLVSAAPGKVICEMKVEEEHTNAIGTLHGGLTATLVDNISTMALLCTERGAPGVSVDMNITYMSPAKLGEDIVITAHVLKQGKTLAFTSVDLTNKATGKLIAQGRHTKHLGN
# UniProt Q9NPA0: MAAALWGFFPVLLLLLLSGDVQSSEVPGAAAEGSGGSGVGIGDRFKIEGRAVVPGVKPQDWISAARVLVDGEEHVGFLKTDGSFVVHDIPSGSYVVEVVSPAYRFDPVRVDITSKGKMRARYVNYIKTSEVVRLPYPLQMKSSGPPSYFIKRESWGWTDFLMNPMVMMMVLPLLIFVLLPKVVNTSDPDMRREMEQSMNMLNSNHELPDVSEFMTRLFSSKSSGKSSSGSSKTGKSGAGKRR
# UniProt Q9NSE4: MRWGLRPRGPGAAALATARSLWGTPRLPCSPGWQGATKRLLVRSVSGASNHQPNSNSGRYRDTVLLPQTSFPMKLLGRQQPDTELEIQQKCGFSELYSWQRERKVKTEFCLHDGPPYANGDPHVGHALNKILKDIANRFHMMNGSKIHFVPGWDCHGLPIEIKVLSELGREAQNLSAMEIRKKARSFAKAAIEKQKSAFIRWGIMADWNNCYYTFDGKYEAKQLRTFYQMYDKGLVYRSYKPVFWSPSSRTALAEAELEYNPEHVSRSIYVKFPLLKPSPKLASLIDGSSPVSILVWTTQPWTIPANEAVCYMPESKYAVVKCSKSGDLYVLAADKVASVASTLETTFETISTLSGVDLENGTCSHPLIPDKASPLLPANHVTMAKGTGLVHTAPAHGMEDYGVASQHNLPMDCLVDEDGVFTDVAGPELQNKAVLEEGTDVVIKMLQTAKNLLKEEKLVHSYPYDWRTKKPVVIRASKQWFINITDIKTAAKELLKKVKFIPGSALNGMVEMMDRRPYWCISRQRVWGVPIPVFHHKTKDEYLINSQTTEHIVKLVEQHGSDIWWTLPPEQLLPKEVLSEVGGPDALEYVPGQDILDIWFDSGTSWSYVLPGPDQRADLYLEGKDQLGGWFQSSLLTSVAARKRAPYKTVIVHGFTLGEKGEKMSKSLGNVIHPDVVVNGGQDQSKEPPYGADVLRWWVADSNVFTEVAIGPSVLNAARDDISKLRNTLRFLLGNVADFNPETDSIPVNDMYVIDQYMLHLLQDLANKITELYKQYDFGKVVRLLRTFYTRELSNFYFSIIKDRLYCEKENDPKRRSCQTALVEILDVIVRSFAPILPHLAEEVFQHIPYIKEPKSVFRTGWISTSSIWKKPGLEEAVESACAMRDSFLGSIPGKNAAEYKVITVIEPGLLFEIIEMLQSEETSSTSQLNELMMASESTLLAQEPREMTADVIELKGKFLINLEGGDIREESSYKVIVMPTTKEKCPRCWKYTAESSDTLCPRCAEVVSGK
# UniProt Q9NUS5: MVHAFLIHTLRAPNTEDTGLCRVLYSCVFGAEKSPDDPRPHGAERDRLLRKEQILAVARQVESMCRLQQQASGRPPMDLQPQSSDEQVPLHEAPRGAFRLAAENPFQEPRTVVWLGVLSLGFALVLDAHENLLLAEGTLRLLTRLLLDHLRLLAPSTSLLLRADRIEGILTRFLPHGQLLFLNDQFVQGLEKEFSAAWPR
# UniProt Q9NRW7: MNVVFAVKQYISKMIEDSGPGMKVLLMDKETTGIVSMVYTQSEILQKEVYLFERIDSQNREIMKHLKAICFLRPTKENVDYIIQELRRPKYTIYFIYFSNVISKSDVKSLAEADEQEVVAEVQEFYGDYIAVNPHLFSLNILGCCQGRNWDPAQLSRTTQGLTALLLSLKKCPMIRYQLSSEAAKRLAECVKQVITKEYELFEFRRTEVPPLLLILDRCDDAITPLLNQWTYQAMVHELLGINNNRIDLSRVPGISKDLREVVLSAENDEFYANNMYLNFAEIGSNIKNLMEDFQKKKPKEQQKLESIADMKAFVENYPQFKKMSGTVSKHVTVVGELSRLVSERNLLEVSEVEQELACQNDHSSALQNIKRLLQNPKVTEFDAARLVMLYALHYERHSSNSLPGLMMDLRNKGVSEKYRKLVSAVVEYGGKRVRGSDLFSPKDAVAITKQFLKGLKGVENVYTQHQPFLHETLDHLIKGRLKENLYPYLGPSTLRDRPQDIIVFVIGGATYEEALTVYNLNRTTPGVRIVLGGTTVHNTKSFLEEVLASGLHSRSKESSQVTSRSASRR
# UniProt Q9NVV4: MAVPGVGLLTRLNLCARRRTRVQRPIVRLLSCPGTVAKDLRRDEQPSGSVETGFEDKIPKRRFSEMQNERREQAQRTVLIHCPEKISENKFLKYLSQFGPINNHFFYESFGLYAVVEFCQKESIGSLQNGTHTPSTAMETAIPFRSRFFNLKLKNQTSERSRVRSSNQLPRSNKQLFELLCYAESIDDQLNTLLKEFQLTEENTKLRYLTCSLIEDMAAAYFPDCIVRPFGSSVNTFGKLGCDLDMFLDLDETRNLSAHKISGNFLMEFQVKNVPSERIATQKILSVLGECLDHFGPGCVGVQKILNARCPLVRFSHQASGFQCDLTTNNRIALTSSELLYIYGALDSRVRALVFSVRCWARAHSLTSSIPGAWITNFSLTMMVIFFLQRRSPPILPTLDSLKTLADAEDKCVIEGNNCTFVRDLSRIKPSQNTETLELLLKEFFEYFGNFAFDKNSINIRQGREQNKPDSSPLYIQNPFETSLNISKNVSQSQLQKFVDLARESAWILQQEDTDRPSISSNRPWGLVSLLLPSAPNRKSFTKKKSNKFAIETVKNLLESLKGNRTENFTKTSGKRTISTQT
# UniProt Q9NPF5, whole entry: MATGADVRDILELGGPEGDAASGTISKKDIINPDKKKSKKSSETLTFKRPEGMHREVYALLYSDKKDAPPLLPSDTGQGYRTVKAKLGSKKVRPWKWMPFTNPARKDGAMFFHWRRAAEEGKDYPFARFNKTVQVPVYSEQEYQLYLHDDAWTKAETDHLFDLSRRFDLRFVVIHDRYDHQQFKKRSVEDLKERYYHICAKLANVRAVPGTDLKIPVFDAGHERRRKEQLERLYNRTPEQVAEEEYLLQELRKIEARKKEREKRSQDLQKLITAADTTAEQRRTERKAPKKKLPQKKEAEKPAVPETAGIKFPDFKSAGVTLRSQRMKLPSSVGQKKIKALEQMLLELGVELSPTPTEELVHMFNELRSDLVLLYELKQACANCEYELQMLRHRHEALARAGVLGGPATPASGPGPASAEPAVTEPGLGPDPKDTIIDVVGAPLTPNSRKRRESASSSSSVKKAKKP
# UniProt Q9NPH2: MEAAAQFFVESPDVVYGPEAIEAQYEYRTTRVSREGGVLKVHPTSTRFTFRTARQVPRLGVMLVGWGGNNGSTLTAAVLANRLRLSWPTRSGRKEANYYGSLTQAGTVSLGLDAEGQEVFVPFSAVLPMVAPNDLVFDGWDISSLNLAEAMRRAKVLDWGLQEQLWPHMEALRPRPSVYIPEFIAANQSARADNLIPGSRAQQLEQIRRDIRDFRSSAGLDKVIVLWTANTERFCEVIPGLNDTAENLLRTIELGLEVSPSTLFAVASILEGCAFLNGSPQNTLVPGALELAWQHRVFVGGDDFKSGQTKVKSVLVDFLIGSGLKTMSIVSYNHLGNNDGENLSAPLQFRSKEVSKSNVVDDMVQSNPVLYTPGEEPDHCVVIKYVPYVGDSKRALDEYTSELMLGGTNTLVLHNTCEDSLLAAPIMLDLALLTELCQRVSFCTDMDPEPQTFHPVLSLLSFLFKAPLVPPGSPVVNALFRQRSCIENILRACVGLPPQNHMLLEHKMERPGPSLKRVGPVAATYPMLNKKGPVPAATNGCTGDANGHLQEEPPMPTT
# UniProt Q9NRX1: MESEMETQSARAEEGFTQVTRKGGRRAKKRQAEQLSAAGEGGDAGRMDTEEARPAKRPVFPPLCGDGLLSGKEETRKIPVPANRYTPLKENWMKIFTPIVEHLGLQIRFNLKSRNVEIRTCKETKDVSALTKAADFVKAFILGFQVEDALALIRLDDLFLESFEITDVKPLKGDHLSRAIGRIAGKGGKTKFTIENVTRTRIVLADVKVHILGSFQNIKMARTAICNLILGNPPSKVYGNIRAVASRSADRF
# This is one part of the list. Most values lie at the level of the controls, where differences are scatter.
# Compound: Cc1nc(Nc2ncc(C(=O)Nc3c(C)cccc3Cl)s2)cc(N2CCN(CCO)CC2)n1 [dasatinib]
# Test: log2 fold change of tryptic peptide abundance, ligand vs vehicle (limited proteolysis) (log2 ratio); higher = more trypsin-susceptible (destabilized)
# Conditions: ligand concentration: 5 uM; sample: K562 cleared lysate
row,Target,log2 fold change
1,"UniProt Q9NQB0 (peptide sequence: QLHMQLYPGWSAR, peptide start residue: 357)",-0.107
2,"XAGE1A (peptide sequence: EEHCKMPEAGEEQPQV, peptide start residue: 66) (UniProt Q9HD64)",-0.272
3,"UniProt Q9NPJ3 (peptide sequence: ITLVSAAPGK, peptide start residue: 28)",-0.128
4,"UniProt Q9NPA0 (peptide sequence: AVVPGVKPQDWISAAR, peptide start residue: 51)",-0.165
5,"IARS2 (peptide sequence: ADLYLEGK, peptide start residue: 618) (UniProt Q9NSE4)",-0.575
6,"UniProt Q9NUS5 (peptide sequence: APNTEDTGLCR, peptide start residue: 12)",-0.234
7,"VPS45 (peptide sequence: HSSNSLPGLMMDLR, peptide start residue: 398) (UniProt Q9NRW7)",-0.412
8,"MTPAP (peptide sequence: TVLIHCPEKISENK, peptide start residue: 77) (UniProt Q9NVV4)",0.525
9,"DMAP1 (peptide sequence: EAEKPAVPETAGIK, peptide start residue: 298) (UniProt Q9NPF5)",-0.353
10,"ISYNA1 (peptide sequence: ADNLIPGSR, peptide start residue: 192) (UniProt Q9NPH2)",-0.0881
11,"PNO1 (peptide sequence: KIPVPANR, peptide start residue: 77) (UniProt Q9NRX1)",-0.0903
